Assay results: the supplement of paper PMC11006884
Shown are results outside the selection of targets with a hit, which stands elsewhere. This is a noisy data set. Only a part is listed here, and it is no random draw.

Protein sequences, listed by entry. Tags and fused reporters are not part of them. Lines headed by an entry give the natural chain unless they say otherwise; changes in a name come on top.
UniProt Q5T160: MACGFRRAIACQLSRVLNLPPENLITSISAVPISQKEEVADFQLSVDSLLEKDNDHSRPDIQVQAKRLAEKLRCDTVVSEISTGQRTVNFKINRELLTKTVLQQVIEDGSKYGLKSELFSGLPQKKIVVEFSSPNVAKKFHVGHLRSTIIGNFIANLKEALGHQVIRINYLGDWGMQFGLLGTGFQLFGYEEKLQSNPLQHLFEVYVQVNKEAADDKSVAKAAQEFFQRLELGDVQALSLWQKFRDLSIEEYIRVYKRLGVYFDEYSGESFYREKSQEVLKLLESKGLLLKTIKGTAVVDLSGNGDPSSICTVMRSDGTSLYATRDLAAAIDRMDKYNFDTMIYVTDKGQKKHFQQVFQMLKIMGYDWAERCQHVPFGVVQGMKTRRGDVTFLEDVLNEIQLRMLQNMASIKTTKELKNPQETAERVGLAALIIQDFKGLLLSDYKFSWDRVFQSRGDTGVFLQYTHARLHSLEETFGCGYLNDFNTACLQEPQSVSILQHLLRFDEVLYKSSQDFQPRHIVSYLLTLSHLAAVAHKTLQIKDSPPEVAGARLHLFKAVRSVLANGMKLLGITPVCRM
UniProt Q5UIP0: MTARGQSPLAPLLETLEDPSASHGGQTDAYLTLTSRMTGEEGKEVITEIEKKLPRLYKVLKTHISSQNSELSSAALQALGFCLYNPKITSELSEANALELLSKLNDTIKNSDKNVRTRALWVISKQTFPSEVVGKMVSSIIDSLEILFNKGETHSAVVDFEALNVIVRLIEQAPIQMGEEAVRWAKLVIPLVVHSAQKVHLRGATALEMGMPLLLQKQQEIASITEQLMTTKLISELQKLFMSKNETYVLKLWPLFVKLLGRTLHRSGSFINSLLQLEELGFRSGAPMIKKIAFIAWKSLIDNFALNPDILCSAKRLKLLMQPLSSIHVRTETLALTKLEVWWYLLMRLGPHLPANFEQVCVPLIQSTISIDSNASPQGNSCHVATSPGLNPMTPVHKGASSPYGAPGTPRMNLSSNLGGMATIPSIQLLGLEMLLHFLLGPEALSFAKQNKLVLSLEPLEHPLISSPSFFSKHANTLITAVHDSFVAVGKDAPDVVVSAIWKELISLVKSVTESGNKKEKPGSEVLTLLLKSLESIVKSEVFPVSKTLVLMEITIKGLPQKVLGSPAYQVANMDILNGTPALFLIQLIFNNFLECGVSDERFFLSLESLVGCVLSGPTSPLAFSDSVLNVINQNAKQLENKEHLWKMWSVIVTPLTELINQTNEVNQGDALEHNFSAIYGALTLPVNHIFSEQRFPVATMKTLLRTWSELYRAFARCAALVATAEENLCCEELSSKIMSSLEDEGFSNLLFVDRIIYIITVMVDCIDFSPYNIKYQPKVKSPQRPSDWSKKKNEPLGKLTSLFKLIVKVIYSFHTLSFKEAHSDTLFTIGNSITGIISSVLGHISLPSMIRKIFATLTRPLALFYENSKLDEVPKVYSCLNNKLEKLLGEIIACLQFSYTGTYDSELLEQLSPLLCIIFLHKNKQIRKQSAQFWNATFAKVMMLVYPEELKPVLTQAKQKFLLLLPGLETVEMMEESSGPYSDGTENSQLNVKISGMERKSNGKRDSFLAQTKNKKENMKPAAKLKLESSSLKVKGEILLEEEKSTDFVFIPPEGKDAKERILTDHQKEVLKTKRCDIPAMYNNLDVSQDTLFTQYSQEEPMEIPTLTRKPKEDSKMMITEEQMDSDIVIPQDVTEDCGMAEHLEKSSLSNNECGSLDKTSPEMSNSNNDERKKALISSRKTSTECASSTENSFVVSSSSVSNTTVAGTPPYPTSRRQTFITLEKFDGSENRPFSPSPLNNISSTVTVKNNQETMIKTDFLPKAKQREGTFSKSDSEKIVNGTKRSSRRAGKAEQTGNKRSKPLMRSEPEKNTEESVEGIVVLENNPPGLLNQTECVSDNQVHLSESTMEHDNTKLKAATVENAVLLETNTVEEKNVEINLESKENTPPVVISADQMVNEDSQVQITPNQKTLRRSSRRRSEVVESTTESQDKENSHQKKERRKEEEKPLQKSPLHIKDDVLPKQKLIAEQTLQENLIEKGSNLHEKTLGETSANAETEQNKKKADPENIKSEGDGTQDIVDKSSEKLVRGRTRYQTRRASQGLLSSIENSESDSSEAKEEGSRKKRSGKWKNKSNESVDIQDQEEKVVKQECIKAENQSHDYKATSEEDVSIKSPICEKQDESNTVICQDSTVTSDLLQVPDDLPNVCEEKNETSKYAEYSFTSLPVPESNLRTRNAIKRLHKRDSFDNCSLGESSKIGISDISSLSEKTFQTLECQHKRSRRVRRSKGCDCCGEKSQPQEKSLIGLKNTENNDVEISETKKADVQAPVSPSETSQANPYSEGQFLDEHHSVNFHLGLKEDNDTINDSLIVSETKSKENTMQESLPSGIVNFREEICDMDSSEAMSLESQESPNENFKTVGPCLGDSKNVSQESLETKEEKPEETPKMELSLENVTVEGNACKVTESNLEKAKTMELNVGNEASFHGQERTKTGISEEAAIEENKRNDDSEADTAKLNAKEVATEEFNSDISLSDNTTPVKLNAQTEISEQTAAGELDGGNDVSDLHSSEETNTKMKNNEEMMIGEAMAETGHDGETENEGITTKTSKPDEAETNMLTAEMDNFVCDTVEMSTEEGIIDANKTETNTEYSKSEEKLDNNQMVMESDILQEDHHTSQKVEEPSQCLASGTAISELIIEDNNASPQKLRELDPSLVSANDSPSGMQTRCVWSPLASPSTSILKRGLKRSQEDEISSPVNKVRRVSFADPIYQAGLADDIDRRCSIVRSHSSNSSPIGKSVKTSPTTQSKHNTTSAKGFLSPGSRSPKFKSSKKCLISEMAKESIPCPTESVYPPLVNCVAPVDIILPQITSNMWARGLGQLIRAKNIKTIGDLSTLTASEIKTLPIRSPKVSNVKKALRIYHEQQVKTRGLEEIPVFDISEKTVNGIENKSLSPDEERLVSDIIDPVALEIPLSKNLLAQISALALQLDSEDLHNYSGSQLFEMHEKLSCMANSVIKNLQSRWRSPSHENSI
UniProt Q6PJT7: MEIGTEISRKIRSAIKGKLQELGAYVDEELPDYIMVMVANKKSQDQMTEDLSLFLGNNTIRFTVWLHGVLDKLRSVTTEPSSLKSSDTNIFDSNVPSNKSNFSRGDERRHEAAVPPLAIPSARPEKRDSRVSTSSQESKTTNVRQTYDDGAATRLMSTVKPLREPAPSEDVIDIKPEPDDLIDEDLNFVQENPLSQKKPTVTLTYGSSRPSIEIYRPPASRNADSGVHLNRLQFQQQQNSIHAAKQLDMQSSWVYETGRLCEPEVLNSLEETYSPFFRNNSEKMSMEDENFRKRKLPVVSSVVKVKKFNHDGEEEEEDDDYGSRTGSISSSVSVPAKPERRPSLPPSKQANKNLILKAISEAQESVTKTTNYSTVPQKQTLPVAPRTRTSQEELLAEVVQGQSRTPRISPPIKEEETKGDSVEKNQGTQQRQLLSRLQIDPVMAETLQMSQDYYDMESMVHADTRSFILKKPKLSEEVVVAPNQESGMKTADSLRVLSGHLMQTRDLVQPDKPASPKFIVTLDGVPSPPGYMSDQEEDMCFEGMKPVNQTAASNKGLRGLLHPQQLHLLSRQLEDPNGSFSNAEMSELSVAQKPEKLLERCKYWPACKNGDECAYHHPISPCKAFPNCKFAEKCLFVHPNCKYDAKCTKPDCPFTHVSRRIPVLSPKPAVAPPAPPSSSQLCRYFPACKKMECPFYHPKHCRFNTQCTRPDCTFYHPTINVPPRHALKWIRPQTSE
UniProt Q6S8J3, whole entry, looked up: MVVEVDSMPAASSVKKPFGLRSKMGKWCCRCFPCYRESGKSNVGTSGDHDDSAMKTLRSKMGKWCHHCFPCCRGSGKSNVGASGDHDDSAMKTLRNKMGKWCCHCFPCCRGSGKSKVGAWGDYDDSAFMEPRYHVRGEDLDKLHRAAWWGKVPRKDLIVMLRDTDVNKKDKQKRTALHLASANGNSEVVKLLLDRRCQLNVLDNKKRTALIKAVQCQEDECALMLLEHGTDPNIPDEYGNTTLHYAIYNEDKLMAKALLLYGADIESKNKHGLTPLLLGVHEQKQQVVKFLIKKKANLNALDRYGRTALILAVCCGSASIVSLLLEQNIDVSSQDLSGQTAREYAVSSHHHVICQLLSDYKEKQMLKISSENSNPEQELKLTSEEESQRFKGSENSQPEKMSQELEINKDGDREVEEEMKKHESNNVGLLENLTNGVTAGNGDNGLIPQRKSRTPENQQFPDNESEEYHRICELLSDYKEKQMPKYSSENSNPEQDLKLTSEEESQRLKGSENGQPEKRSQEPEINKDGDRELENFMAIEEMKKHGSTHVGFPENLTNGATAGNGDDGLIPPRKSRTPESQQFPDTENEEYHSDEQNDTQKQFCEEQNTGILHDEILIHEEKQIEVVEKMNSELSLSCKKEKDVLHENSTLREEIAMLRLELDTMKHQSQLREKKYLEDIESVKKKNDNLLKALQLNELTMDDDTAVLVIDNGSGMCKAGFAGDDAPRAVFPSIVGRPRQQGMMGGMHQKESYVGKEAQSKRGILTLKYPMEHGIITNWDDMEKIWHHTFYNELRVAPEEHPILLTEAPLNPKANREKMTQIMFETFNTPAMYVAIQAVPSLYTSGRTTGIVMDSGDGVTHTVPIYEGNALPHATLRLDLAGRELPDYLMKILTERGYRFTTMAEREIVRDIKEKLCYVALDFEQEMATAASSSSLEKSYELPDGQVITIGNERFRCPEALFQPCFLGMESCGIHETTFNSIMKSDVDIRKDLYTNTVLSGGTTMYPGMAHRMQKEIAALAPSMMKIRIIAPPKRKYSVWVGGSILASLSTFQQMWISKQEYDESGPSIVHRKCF
UniProt Q5TAX3: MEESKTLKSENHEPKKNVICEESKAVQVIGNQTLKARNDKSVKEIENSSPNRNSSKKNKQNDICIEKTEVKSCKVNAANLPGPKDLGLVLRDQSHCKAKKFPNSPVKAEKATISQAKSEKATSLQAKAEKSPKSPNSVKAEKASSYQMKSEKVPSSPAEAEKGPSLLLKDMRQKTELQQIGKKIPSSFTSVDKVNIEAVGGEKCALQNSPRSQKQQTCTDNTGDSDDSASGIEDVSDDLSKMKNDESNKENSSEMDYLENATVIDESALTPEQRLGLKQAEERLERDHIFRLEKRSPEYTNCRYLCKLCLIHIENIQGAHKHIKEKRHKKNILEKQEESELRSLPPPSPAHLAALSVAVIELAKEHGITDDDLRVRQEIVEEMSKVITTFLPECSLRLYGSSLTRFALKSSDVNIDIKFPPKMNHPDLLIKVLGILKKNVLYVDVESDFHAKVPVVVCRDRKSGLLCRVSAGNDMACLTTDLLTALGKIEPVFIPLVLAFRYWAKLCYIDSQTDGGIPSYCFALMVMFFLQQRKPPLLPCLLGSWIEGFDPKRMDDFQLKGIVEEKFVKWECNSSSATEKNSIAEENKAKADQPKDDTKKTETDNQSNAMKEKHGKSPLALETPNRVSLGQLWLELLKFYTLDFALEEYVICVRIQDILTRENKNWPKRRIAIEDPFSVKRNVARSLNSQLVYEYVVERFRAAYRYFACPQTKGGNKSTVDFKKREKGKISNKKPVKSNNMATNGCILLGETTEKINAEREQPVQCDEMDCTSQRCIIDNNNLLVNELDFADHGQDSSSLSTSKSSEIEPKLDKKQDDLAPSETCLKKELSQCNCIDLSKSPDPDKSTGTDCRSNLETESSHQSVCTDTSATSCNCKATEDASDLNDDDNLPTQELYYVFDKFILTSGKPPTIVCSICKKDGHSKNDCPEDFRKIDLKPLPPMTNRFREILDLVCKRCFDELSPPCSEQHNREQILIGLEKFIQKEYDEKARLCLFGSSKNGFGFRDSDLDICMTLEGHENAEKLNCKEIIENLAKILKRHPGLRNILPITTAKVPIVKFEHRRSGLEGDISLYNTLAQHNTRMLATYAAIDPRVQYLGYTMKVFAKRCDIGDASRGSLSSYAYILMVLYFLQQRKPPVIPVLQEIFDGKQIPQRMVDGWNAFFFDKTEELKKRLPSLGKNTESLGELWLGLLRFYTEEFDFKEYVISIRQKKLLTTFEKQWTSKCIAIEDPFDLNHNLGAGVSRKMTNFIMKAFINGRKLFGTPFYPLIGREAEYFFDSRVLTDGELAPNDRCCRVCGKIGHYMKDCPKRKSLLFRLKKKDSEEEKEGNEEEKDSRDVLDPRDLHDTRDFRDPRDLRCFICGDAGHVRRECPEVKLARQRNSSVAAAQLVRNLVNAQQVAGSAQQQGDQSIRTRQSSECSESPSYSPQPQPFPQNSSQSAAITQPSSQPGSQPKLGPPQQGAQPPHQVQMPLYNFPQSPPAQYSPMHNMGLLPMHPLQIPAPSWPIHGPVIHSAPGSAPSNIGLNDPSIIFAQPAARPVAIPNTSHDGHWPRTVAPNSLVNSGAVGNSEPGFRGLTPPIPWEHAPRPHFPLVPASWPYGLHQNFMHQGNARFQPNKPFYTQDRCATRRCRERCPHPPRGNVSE

compound: COC(=O)/C=C/c1ccccc1 [methyl cinnamate]; experiment: log2 ratio of iodoacetamide-alkyne labeling of the cysteine site, DMSO over compound (competition); higher = stronger covalent engagement of the cysteine by the compound, active = 1 or more; conditions: 500 µM; treatment time 1 h; system: HEK293T cell lysate
Outline: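 After 1 h at ambient temperature with vehicle or electrophile (500 µM), HEK293T lysate (2 mg/mL) was labelled for 1 h with iodoacetamide alkyne and clicked to sCIP-TMT reagents. Pooled samples were trypsin-digested overnight at 37 °C, streptavidin-enriched, acid-eluted and analysed by Orbitrap Eclipse LC-MS/MS with FAIMS, then quantified in FragPipe over three replicates with duplicate channels. A cysteine's log2 competition ratio is its mean control-channel over mean compound-channel reporter intensity. Cysteines quantified in only one replicate were not included.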

Target | log2 ratio of iodoacetamide-alkyne labeling
RPRD2 C1071 (UniProt Q5VT52) | inactive: -0.0773
BCORL1 C617 (UniProt Q5H9F3) | inactive: 0.177
RARS2 C74 (UniProt Q5T160) | inactive: 0.257
UniProt Q6IQ49_C415 | inactive: 0.426
C19orf54 C226 (UniProt Q5BKX5) | inactive: -0.0754
RIF1 C1692 (UniProt Q5UIP0) | inactive: 0.276
PRPF8 C435 (UniProt Q6P2Q9) | inactive: 0.187
ZC3H14 C712 (UniProt Q6PJT7) | inactive: -0.316
MTHFD1L C291 (UniProt Q6UB35) | inactive: 0.0528
UniProt Q6S8J3_C972 | inactive: 0.225
UniProt Q5TAX3_C994 | inactive: 0.111
UniProt Q63HN8_C3609 | inactive: 0.0831
AARS2 C300 (UniProt Q5JTZ9) | inactive: 0.00283
MAP1S C841 (UniProt Q66K74) | inactive: 0.32
PITRM1 C780 (UniProt Q5JRX3) | inactive: 0.117
TJAP1 C172 (UniProt Q5JTD0) | inactive: 0.188

Two records picked at random from the list so far:
Target | log2 ratio of iodoacetamide-alkyne labeling
UniProt Q63HN8_C3609 | inactive: 0.0831
UniProt Q6IQ49_C415 | inactive: 0.426
